The target in assay [1] is biotin-labeled recombinant PP2Aa protein (UniProt P30153). The assay can be described thus: AlphaScreen or HTRF; biotin-labeled PP2Aa on streptavidin donor beads, His-tagged STRN3 on nickel chelate acceptor beads; screen of 3095 compounds, inhibition rate as read-out; both purified.
Another assay deals with HA-tagged PP2Aa (UniProt P30153). The assay can be described thus: co-IP; HA-PP2Aa and Flag-STRN3 in HEK293A cells treated with indicated doses of DSF (Fig. 1G) or with TH (Fig. S5C).
For another assay, the target named is T1, MST2 (Co-IP with STRN3) (UniProt Q13188).
T1 sequence: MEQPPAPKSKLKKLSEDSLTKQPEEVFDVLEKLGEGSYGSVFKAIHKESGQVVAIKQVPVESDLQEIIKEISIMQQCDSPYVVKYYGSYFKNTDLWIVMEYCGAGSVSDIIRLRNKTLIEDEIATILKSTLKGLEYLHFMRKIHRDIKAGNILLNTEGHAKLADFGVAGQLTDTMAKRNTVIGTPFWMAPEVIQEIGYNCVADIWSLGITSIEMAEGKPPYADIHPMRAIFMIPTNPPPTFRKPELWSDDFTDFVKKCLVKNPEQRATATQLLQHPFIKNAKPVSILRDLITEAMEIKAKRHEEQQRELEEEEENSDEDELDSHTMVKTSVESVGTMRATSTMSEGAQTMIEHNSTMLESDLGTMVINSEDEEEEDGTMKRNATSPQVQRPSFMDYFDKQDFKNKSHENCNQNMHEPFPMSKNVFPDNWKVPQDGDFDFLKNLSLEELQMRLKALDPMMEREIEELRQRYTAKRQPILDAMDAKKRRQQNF
Kind of assay: co-IP; MST2 and STRN3, with doses of CX (Fig. S6F); cells and tags not given.

Chains of the proteins cited; added tags and fusions are not shown. Lines headed by an entry give the natural chain unless they say otherwise; changes in a name come on top. Residues count along the entry.
UniProt P30153: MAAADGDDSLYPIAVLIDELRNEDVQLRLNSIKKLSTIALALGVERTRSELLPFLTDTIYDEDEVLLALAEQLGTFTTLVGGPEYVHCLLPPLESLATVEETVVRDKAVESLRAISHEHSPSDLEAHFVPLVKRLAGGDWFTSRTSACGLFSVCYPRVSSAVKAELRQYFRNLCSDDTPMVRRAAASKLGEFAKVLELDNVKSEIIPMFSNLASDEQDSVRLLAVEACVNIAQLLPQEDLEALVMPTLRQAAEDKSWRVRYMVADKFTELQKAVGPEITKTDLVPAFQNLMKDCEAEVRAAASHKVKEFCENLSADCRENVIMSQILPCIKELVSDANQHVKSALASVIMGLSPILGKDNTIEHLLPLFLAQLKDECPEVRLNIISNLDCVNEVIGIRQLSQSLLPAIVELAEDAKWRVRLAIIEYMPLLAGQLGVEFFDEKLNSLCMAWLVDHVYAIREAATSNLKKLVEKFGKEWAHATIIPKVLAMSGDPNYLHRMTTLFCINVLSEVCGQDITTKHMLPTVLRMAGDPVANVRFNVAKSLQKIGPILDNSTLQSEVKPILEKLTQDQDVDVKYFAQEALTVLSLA
biotin-labeled recombinant PP2Aa protein: residues 8-589 of P30153

These are yes or no findings as the source states them, for the method shown. For part of these data: Binding seen in cells or lysates may run through a third protein. Some results given as binding are weak or reduced against the parent protein; the word gives no strength. For part of these data: Tags and fused reporters may be left off the sequences shown.

B1: His-SUMO-tagged STRN3 (amino acid 64–145) (domain or fragment, UniProt Q13033 64-145, looked up)
chain: TIPGILHYIQHEWARFEMERAHWEVERAELQARIAFLQGERKGQENLKKDLVRRIKMLEYALKQERAKYHKLKYGTELNQGD
notes: STRN3 (striatin-3), amino acid 64-145; Used where the tag is named or used for capture: the GST and MBP pull-downs and the nickel chelate acceptor beads of the AlphaScreen; also called HS-STRN3; His-tagged STRN3
With B1, the binding entry in assay [1] was “binds”.

B2: Flag-tagged STRN3 (protein, UniProt Q13033 1-797)
chain: MDELAGGGGGGPGMAAPPRQQQGPGGNLGLSPGGNGAAGGGGPPASEGAGPAAGPELSRPQQYTIPGILHYIQHEWARFEMERAHWEVERAELQARIAFLQGERKGQENLKKDLVRRIKMLEYALKQERAKYHKLKYGTELNQGDLKMPTFESEETKDTEAPTAPQNSQLTWKQGRQLLRQYLQEVGYTDTILDVRSQRVRSLLGLSNSEPNGSVETKNLEQILNGGESPKQKGQEIKRSSGDVLETFNFLENADDSDEDEENDMIEGIPEGKDKHRMNKHKIGNEGLAADLTDDPDTEEALKEFDFLVTAEDGEGAGEARSSGDGTEWDKDDLSPTAEVWDVDQGLISKLKEQYKKERKGKKGVKRANRTKLYDMIADLGDDELPHIPSGIINQSRSASTRMTDHEGARAEEAEPITFPSGGGKSFIMGSDDVLLSVLGLGDLADLTVTNDADYSYDLPANKDAFRKTWNPKYTLRSHFDGVRALAFHPVEPVLVTASEDHTLKLWNLQKTVPAKKSASLDVEPIYTFRAHIGPVLSLAISSNGEQCFSGGIDATIQWWNMPSPSVDPYDTYEPNVLAGTLVGHTDAVWGLAYSGIKNQLLSCSADGTVRLWNPQEKLPCICTYNGDKKHGIPTSVDFIGCDPAHMVTSFNTGSAVIYDLETSQSLVILSSQVDSGLQSNNHINRVVSHPTLPVTITAHEDRHIKFFDNKTGKMIHSMVAHLDAVTSLAVDPNGIYLMSGSHDCSIRLWNLDSKTCVQEITAHRKKLDESIYDVAFHSSKAYIASAGADALAKVFV
For the molecule B2, the binding result in the assay with HA-tagged PP2Aa was “binds”.

B3: STRN3 (Co-IP with MST2) (protein, UniProt Q13033 1-797)
chain: B2 chain
Consider B3, for which, in the assay with MST2 (Co-IP with STRN3), the binding result is “binds”.

(Values after paper PMC11126936, “Reactivating Hippo by drug compounds to suppress gastric cancer and enhance chemotherapy sensitivity” (The Journal of Biological Chemistry, 2024).)
